{
  "source": "paper PMC12391994",
  "about": "“Synthesis of a fac-Tricarbonylrhenium(I) Complex with Pyrithione, Its Physicochemical Characterization, and Assessment of Biological Effects” (ACS Omega, 2025)",
  "test_system": "HeLa cells",
  "assay": "MTT cytotoxicity assay, HeLa",
  "format": "cell-based",
  "conditions": "Homo sapiens, 72 h incubation",
  "protocol": "Its cytotoxicity was determined in the human HeLa cervical cancer cell line, the drug-sensitive Colo205 and its resistant counterpart, the ABCB1 expressing Colo320 colon adenocarcinoma cancer cell lines, using the colorimetric 3-(4,5-dimethylthiazol-2-yl)-2,5-diphenyltetrazolium bromide (MTT) test. To investigate the selectivity toward cancer cells, the noncancerous fibroblast CCD-19Lu cell line was included.\nThe tested compound was dissolved in DMSO to prepare a 5 mM stock solution, which was diluted in complete culture medium, to study the effect of compounds on cell growth of human colonic adenocarcinoma cell lines. Doxorubicin was used as the positive control. The cells were treated with a trypsin-versene (EDTA) solution. Cells were adjusted to a density of 1 × 10^4 cells in 100 μL of the appropriate culture medium and were added to each well, with the exception of the medium control wells. Except for the semiadherent Colo205 and Colo320 cell lines, the other adherent cell lines were seeded 24 h prior to the assay. Then, stock solutions were diluted in the appropriate culture medium, and 2-fold serial dilutions of compounds were prepared in 100 μL of the medium, horizontally. […] Cell growth was determined by measuring the optical density (OD) at 540/630 nm with a Multiscan EX ELISA reader (Thermo Labsystems, Cheshire, WA). […]",
  "data": [
    {"smiles": "COc1cccc2c1C(=O)c1c(O)c3c(c(O)c1C2=O)C[C@@](O)(C(=O)CO)C[C@@H]3O[C@H]1C[C@H](N)[C@H](O)[C@H](C)O1", "note": "[doxorubicin, reference compound]", "values": [
      {"measurement": "IC50", "value": "328 ± 49", "unit": "nM"}
    ]}
  ]
}
